Measurements taken from the supplement of paper PMC6411743.
± gives the standard deviation of the averaged measurements. The list shows a part of the results.

Legend:
Test in all cases: NP40-soluble protein abundance relative to vehicle (solubility fold change) (ratio); higher = more soluble protein in presence of GTP
SLC12A2 = target: T1, SLC12A2 (UniProt P55011)
T1 sequence (whole entry): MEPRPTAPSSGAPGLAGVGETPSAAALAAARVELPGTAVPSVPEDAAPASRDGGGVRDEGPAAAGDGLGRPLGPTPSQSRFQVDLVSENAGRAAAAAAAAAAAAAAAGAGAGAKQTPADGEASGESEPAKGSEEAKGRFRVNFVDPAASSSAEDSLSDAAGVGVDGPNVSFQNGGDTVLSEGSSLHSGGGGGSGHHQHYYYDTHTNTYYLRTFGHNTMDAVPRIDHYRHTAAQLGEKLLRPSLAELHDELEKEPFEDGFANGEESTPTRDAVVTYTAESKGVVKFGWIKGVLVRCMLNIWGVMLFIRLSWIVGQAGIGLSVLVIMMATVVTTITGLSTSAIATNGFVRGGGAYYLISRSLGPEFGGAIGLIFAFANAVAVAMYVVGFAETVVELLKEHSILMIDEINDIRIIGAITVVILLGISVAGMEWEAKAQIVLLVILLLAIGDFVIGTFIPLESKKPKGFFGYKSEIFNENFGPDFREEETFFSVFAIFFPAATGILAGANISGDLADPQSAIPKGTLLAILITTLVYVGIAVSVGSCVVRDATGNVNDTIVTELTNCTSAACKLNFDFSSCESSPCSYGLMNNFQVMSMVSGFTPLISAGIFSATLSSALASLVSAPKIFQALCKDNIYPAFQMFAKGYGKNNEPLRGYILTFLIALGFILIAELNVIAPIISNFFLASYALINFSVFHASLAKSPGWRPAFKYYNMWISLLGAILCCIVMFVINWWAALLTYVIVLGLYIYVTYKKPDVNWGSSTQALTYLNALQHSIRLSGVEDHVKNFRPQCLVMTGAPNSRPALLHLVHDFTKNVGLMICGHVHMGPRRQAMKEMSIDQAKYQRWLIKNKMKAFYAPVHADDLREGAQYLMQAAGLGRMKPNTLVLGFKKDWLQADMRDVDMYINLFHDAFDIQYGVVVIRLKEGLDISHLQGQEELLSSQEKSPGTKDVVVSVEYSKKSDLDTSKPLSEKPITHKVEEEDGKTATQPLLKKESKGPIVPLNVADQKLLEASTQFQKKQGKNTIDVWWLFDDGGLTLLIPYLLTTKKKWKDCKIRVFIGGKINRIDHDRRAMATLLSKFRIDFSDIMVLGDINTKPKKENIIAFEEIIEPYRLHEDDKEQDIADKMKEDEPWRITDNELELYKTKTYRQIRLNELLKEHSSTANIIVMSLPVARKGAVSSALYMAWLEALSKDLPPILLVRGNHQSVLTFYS
How it was run: (§1)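 Crude Jurkat lysate, prepared by Dounce homogenisation, was exposed to eight concentrations from 0.1 to 10 mM for 10 min at room temperature and then 3 min at 37 °C. Solubilisation used 0.8% NP40 with benzonase for 60 min at 4 °C, followed by ultracentrifugation and TMT labelling of the supernatant for LC-MS/MS. After vsn normalisation of intensities, each value is the fold change against the detergent-processed vehicle within each replicate, across three independent experiments.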

[1] = target: T2, UniProt P52594 and related entries
T2 sequence (whole entry): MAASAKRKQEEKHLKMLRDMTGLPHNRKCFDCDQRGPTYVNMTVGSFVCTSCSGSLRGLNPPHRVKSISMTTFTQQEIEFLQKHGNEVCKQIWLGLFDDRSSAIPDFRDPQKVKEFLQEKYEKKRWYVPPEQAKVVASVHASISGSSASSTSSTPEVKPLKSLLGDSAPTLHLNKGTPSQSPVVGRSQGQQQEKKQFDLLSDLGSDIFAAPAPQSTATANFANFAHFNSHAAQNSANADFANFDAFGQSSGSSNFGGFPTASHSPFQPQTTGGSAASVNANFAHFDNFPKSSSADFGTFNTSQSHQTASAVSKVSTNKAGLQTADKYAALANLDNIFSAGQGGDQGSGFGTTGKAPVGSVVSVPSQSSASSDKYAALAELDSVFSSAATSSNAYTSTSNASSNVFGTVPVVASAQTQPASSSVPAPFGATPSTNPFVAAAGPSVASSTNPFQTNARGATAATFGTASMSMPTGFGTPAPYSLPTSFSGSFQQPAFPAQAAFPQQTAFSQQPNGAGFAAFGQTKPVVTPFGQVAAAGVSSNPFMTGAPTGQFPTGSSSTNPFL
How it was run: as §1

[2] = target: T3, UniProt P54278 and related entries
T3 sequence (whole entry): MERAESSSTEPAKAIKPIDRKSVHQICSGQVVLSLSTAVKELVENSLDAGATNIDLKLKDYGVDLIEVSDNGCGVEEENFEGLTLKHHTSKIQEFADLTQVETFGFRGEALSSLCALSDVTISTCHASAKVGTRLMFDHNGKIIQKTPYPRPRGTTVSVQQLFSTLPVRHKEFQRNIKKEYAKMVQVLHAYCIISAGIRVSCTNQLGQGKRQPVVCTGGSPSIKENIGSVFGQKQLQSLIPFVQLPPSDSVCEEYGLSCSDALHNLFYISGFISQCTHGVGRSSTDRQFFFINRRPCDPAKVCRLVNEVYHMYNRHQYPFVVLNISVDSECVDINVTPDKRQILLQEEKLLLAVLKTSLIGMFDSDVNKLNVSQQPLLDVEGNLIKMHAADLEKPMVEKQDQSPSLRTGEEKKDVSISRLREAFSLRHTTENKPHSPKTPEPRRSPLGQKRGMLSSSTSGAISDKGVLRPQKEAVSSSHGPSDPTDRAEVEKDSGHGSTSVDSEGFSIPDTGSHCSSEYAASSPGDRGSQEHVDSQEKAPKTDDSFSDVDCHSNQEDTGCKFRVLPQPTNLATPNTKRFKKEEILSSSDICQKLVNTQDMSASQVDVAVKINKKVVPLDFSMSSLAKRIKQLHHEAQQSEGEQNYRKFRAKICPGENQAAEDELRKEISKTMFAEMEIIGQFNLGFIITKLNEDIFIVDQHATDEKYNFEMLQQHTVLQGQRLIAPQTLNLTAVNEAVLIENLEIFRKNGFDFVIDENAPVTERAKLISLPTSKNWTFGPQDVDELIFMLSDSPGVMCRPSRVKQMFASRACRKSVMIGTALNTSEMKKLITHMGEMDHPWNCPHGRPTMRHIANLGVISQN
How it was run: as §1

[3] = target: T4, UniProt P54725 and related entries
T4 sequence (whole entry): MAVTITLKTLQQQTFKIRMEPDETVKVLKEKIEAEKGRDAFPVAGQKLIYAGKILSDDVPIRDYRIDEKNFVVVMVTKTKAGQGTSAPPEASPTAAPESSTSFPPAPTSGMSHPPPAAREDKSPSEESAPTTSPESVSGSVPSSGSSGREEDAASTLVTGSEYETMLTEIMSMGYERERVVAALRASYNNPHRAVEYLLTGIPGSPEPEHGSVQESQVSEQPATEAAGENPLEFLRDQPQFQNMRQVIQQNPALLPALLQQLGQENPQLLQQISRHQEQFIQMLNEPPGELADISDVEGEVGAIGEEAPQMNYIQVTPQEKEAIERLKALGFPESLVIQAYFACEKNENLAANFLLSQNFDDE
How it was run: as §1

Question: Which results are given for `Nc1nc2c(ncn2[C@@H]2O[C@H](COP(=O)(O)OP(=O)(O)OP(=O)(O)O)[C@@H](O)[C@H]2O)c(=O)[nH]1` [guanosine triphosphate]?
Answer: NP40-soluble protein abundance (SLC12A2; concentration: 4mM): 0.959 ± 0.024; NP40-soluble protein abundance (SLC12A2; concentration: 6mM): 0.965 ± 0.035; NP40-soluble protein abundance (SLC12A2; concentration: 8mM): 0.978 ± 0.049; NP40-soluble protein abundance (SLC12A2; concentration: 10mM): 0.967 ± 0.02; NP40-soluble protein abundance ([1]; concentration: 0.1mM): 0.924 ± 0.047; NP40-soluble protein abundance ([1]; concentration: 0.5mM): 0.921 ± 0.019; NP40-soluble protein abundance ([1]; concentration: 1mM): 0.895 ± 0.038; NP40-soluble protein abundance ([1]; concentration: 2mM): 0.902 ± 0.059; NP40-soluble protein abundance ([1]; concentration: 4mM): 0.853 ± 0.088; NP40-soluble protein abundance ([1]; concentration: 6mM): 0.879 ± 0.082; NP40-soluble protein abundance ([1]; concentration: 8mM): 0.819 ± 0.052; NP40-soluble protein abundance ([1]; concentration: 10mM): 0.882 ± 0.05; NP40-soluble protein abundance ([2]; concentration: 0.1mM): 1.13 ± 0.043; NP40-soluble protein abundance ([2]; concentration: 0.5mM): 1.2 ± 0.11; NP40-soluble protein abundance ([2]; concentration: 1mM): 1.15 ± 0.11; NP40-soluble protein abundance ([2]; concentration: 2mM): 1.15 ± 0.11; NP40-soluble protein abundance ([2]; concentration: 4mM): 1.14 ± 0.085; NP40-soluble protein abundance ([2]; concentration: 6mM): 1.15 ± 0.073; NP40-soluble protein abundance ([2]; concentration: 8mM): 1.15 ± 0.12; NP40-soluble protein abundance ([2]; concentration: 10mM): 1.12 ± 0.14; NP40-soluble protein abundance ([3]; concentration: 0.1mM): 0.869 ± 0.054; NP40-soluble protein abundance ([3]; concentration: 0.5mM): 0.832 ± 0.042; NP40-soluble protein abundance ([3]; concentration: 1mM): 0.954 ± 0.049; NP40-soluble protein abundance ([3]; concentration: 2mM): 0.953 ± 0.062; NP40-soluble protein abundance ([3]; concentration: 4mM): 0.933 ± 0.038; NP40-soluble protein abundance ([3]; concentration: 6mM): 0.912 ± 0.079; NP40-soluble protein abundance ([3]; concentration: 8mM): 0.904 ± 0.12; NP40-soluble protein abundance ([3]; concentration: 10mM): 0.977 ± 0.054
